According to publication PMC4731787, “Structural basis for the recognition of two consecutive mutually interacting DPF motifs by the SGIP1 μ homology domain” (Scientific Reports, 2016):
No constants are given. Whether binding was seen depends on the method and setting. For part of these data: Where a sequence is shown, tags or fusion partners need not be part of it. Where no end group is shown, it is not given here. GST = glutathione S-transferase fusion tag

T1: SGIP1 μHD, Ala563 replaced with Glu (human) (UniProt Q9BQI5)
T1 sequence: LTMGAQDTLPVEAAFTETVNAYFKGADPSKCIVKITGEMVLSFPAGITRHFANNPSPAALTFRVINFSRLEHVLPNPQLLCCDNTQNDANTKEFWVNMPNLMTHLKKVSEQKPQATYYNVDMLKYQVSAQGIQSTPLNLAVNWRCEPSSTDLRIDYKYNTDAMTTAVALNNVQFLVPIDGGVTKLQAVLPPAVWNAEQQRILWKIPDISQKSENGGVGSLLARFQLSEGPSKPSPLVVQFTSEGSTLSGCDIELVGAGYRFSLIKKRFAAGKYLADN

T2: SGIP1 μHD, Ala565 replaced with Glu (human) (UniProt Q9BQI5)
T2 sequence: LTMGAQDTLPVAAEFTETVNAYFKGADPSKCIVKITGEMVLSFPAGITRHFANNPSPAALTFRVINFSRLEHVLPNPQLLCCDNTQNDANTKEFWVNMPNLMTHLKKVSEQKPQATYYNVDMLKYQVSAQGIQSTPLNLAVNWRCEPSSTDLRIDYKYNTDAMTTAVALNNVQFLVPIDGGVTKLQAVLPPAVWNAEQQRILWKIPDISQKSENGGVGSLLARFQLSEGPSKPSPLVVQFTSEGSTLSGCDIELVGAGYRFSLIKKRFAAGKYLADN

T3: SGIP1 μHD, Asn670 replaced with Asp (human) (UniProt Q9BQI5)
T3 sequence: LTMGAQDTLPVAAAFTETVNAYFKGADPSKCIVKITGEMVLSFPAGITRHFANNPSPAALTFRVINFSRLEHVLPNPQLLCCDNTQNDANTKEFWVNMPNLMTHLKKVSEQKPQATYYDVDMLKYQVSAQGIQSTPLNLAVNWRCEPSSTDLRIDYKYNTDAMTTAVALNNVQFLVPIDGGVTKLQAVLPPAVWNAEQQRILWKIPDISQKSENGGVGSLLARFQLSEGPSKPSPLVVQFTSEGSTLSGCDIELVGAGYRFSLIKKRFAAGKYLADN


Experiments:
Test in all cases: ITC; VP-ITC, 25 °C, 50 mM Tris-HCl pH 8.0, 50 mM NaCl; for the majority the μHD (SGIP1, its mutants or FCHo1) in the cell, titrated with Eps15 fragments or peptides, for others the reverse (Supplementary Table 2); repeated twice, global fit with SEDPHAT, single-site or two-site model; both purified
[1] = target: T1, SGIP1 μHD, Ala563 replaced with Glu (human)
[2] = target: T2, SGIP1 μHD, Ala565 replaced with Glu (human)
[3] = target: T3, SGIP1 μHD, Asn670 replaced with Asp (human)

| binding [1] | binding [2] | binding [3] | Binder |
| --- | --- | --- | --- |
| no binding | no binding |  | {GST}-SDPFKDDPFGKIDPFGGDPFKGSDPFA (domain or fragment, human, source: E. coli, purified (Glutathione Sepharose 4B, glutathione elution, Superdex 200); not shown: GST, N-terminal, kept) [GST-Eps15-628–654] |
|  |  | no binding | YDPFGGDPFKG (N-terminal acetyl group; C-terminal amide group) [Eps15-640–649] |
